This assay concerns the target endogenously labeled Flag-tagged Oct4 in murine V6.5 ESCs (mouse) (UniProt P20263). Briefly: co-IP of endogenously Flag-tagged Oct4 from murine V6.5 ESCs in 2i/LIF, immunoblot. Background: In western blotting, separated proteins are transferred to a membrane and probed.

Protein sequences, listed by entry. Tags and fused reporters are not part of them.
UniProt P20263: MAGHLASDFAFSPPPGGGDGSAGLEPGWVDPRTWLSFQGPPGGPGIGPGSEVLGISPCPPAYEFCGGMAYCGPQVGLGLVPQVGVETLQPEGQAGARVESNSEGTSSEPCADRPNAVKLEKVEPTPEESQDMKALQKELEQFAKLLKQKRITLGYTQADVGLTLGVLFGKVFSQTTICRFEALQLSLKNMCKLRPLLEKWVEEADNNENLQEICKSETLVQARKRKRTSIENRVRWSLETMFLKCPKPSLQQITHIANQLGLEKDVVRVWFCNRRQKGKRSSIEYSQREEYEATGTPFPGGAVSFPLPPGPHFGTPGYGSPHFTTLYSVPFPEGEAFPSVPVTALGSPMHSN

These are yes or no findings as the source states them, for the method shown. In cells and extracts the contact can be indirect. Some binding calls cover weakened binding; strength is not graded here.

B1: Nanog, endogenous, in murine V6.5 ESCs (protein, mouse, UniProt Q80Z64 1-305, looked up)
chain: MSVGLPGPHSLPSSEEASNSGNASSMPAVFHPENYSCLQGSATEMLCTEAASPRPSSEDLPLQGSPDSSTSPKQKLSSPEADKGPEEEENKVLARKQKMRTVFSQAQLCALKDRFQKQKYLSLQQMQELSSILNLSYKQVKTWFQNQRMKCKRWQKNQWLKTSNGLIQKGSAPVEYPSIHCSYPQGYLVNASGSLSMWGSQTWTNPTWSSQTWTNPTWNNQTWTNPTWSSQAWTAQSWNGQPWNAAPLHNFGEDFLQPYVQLQQNFSASDLEVNLEATRESHAHFSTPQALELFLNYSVTPPGEI
On to B1, for which the binding result is recorded as “binds”.

These data come from patent US20140315301A1.
